Source: paper PMC9657876
No constants are given. Whether binding was seen depends on the method and setting. Binding seen in cells or lysates may run through a third protein. Some entries that bind do so weakly or less than the wild type.

Amino acid sequences for entries named in this document (tags omitted).
UniProt Q13283: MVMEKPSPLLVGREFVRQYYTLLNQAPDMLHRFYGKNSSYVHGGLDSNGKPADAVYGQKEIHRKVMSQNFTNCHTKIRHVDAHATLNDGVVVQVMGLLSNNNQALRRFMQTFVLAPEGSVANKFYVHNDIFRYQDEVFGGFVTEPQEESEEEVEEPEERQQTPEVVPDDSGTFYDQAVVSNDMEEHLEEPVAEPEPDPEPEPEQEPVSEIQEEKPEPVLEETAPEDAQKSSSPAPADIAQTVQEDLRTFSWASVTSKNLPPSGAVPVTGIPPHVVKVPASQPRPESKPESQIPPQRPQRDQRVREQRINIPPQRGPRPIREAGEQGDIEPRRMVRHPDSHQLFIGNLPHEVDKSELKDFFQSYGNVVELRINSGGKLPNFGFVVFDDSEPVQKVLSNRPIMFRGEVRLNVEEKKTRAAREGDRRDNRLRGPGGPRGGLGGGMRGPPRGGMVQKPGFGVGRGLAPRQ
UniProt O15523: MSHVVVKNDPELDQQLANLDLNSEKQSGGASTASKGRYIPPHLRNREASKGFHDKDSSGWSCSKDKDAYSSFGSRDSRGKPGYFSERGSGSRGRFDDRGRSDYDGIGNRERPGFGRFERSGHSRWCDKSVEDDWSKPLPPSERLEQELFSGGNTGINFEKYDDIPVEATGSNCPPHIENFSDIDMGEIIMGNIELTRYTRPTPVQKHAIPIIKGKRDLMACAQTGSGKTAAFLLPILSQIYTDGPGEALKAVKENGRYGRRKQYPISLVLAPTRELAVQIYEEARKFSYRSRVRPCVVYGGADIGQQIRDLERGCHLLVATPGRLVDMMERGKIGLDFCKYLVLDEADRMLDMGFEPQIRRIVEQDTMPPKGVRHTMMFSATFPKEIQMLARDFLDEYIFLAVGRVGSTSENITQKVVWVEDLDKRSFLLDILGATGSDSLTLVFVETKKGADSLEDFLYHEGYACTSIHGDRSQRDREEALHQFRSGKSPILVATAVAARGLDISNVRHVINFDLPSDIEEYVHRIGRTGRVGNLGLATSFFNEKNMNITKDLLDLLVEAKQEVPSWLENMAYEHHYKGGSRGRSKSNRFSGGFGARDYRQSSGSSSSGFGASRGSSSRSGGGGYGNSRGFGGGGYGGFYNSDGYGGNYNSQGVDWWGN

Target: G3BP stress granule assembly factor 1 (human (endogenous in monocyte-derived macrophages)) (UniProt Q13283)
Test: co-IP; lysates from MDMs-M2; coimmunoprecipitation with G3BP1 or DDX3Y antibody, rabbit isotype IgG as control; endogenous proteins

DEAD-box helicase 3 Y-linked (from UniProt O15523 1-660)
binding: binds
